The full ranking holds about 33,000 sequences; the median of “E-score (-0.5 to 0.5)” is about -0.0034, and the highest 2% start at about 0.25. Some of the results follow.
biological target: T1, Yap3 (UniProt P38749); test: PBM E-score (8-mer binding enrichment) (E-score (-0.5 to 0.5)); higher = stronger / more preferred TF binding; conditions: protein concentration: 100 nM; construct: GST-full length
T1 sequence: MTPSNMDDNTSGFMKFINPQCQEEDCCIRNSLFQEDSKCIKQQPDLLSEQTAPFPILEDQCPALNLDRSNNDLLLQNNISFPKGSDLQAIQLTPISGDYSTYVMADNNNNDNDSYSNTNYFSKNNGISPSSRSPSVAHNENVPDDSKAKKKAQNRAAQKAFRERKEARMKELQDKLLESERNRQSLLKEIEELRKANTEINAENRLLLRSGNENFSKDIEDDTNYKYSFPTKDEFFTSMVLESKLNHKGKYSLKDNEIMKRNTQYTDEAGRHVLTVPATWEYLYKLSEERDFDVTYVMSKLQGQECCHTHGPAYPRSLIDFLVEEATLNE
Method in brief: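 GST-tagged yeast TFs (full-length or DNA-binding domain) were made by PURExpress in vitro transcription/translation and applied at about 100-200 nM to universal all-10-mer Agilent arrays. The arrays were made double-stranded by primer extension, on fresh or once-stripped slides. Bound protein was detected with fluorescent anti-GST, and scans were normalised with masliner. Each ungapped eight-base word, pooled with its reverse complement, received an E-score (modified Wilcoxon-Mann-Whitney statistic) from the Universal PBM Analysis Suite.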

Sequence	PBM E-score
CGTCGACG	-0.159
GTAGTTGA	0.192
AAGGCGGA	-0.0735
ACAACCCA	0.0442
AGTGCATC	-0.0272
CGCACCCA	-0.0572
CAGCACGC	-0.0604
ATGATGAG	0.12
ACAACGGC	-0.074
GTCTACTA	0.0762
AGTGCACC	0.103
ACACACAG	-0.0238
CATGCGGA	-0.201
CCAGGATA	0.0674
ACGTTATA	0.221
CGCTTCAG	-0.0755
AACCTGAG	-0.12
CTCAACGC	-0.194
CGAGGTAG	-0.295
AAATGACG	0.195
CATCTTAA	0.00845
GCACCTCA	0.0919
CGCTAATC	-0.0908
CCGTTAGC	0.00514
CAGATTCC	-0.184

Sequence	PBM E-score
GGAATTTA	0.173
AACCTCCC	-0.233
CGGTGATA	0.129
CTATCGCC	-0.207
AAGCAACT	0.172
AAAAAACG	0.315
AGGCGTTG	-0.124
ACACCTCC	-0.0206
GTGGATCA	0.0706
ATACAATA	0.242
ACCCTCGC	-0.0339
CATGAGAG	0.108
GCGGATGA	0.0488
ACCAATCT	0.167
CTGATGAC	0.0253
CTTGTATC	0.0582
GCCGGACC	-0.404
AGGCAGCG	-0.137
ATCAGAAG	0.131
CACCTCAC	0.064
GTAGGGCA	0.0216
ATCCCTTG	-0.0605
GAGATACC	0.159
CAAGGAAG	-0.0688
GATGTCCA	-0.0393

Single values from the entries so far:
CCGTTAGC – PBM E-score: 0.00514
CGCACCCA – PBM E-score: -0.0572
CGAGGTAG – PBM E-score: -0.295

The listing continues.

Sequence	PBM E-score
TGAGTGAA	0.101
AAATCGTG	0.184
CTGACCTC	-0.151
AGTAGTTG	0.18
TACCGCGA	0.112
GTGAAAGA	0.114
GAACCAGC	0.0448
ATAGTGTG	0.146
GCACCTGC	-0.0705
CTAACTTA	0.167
ACCTAAAT	0.0556
CACGGATC	-0.0166
GGGTCTAC	-0.218
GGATAGCA	0.0958
CTTCCTAC	-0.167
CTGTTAGA	-0.0952
GGTCAGGA	-0.108
ATCTCAGC	0.0754
CGCATTCC	-0.188
AAAGCCAT	0.0885
AAATGGTC	0.013
TACCGACA	0.0241
TACGGAAA	0.206
CGTGCCCA	-0.143
CACAGGGC	-0.281

Sequence	PBM E-score
CACGGCAA	0.0797
AACATCAG	0.142
ACTAAGCG	0.164
ATCGCAGA	-0.123
GCCAAAGC	-0.18
ATCGTTTG	-0.0122
AATGATAG	0.172
GACTACAC	0.0722
GTGAGTGA	-0.0996
ACCCTAAC	0.154
CCACGGCG	-0.139
TGGCCCAA	-0.182
GCAAGACA	-0.0519
GTTAATAA	0.223
CTGTCGAC	-0.0938
ACGTCGTA	-0.0916
ATTCTAGA	-0.0715
ACGAGTGG	-0.116
AGTGATTG	0.0482
CCGGTGGA	-0.133
ACAGTCGC	-0.15
AGCCCATC	-0.189
ACGACACT	0.0466
CCACTCTC	-0.119
AGGCTCGA	-0.102

Sequence	PBM E-score
CCGACCAA	-0.0619
GGGCAGCA	-0.221
GCATGCAA	0.0908
ATCTGCGC	-0.0825
ACGCGCTA	0.0658
TAAAACCA	0.0776
CGCCGCCC	-0.223
CTGCAGCA	0.099
CTTCAGTA	-0.157
CAGGCAAG	-0.0287
GAGGAAAA	0.0645
CGATCATA	0.13
CAGGTCAA	-0.134
GGACGCCC	-0.27
TGGTGAAA	0.0494
AACGGTCT	-0.00177
AAACACTG	0.125
AAGGTAGG	0.0439
CCAGGTCG	-0.0498
ACGTCTCA	0.0286
GCACATAC	-0.215
ACGGTTTC	-0.0984
GCCCGATA	-0.0253
CCGCAAAG	0.0819
CACGTGAG	-0.0452

Sequence	PBM E-score
AGGAGCAA	-0.15
CTAGCTCA	0.0471
CATGGATC	-0.0545
AGTATGCC	-0.0253
AATTCGAA	0.0447
GATAGTTA	0.167
CTGGTCGA	-0.359
CCGTCACG	-0.129
AGCCAATC	-0.0995
GCTATGAC	0.054
ACGTCAGC	0.0264
AGGGCCAA	-0.164
GAGTGGAA	0.0318
AATCCAGG	0.106
AATGCGAT	0.00603
ACAGACGA	0.0461
CGTAGTAA	0.0845
ACCTAGCA	0.0768
CCAAAGGC	-0.198
AAGATATG	0.206
GAAGGCAA	-0.0146
TCCGAGCA	0.0798
AATAAGAC	0.0513
CGTCTAGC	-0.011
AAGCCCGA	-0.214

No new results follow: entries from further up.
Sequence	PBM E-score
ACAGACGA	0.0461
CGTAGTAA	0.0845

(continued)

Sequence	PBM E-score
GGATTAAC	-0.0443
CCCGCCTA	-0.0814
ACACAATC	0.0379
CGAGAATC	0.0323
ATCGACCA	-0.131
AGGATTGC	-0.153
AAATCCCG	0.0249
CAGACGGG	-0.235
GACAAATA	0.299
AGGACTCG	-0.183
CAGGGATC	-0.285
ACCCGCAC	-0.142
TGATTGCA	0.154
ATGAGCCA	0.0635
CCCCACGC	-0.246
ATGATATC	0.0625
CGCCGCTC	-0.168
ATCGGCTC	0.103
ACTTCGAG	-0.0181
GGTGCCAA	-0.191
ACACTTGG	-0.0144
AGGTAGGG	-0.179
